# Measurements published in PubChem BioAssay AID624297 (National Center for Advancing Translational Sciences (NCATS), 2012).
# Where “and” joins values, the source holds several entries; their conditions need not be identical. Equal values may be shown once. Out of some 340,000 compounds screened, about 6,200 (1.8%) were called active. Inconclusive means that the source gave no clear call. Such entries were picked first, then a sample of the others. The call rests on the fitted dose curve; in most records, active means well fitted activation curve with a large enough effect; inconclusive means small, poorly fitted or top-dose-only effect; inactive means no such curve, though single readings can be large or run the other way. Potencies beside an inconclusive call are fits to weak or partial responses and may not hold up.
# Assay: A quantitative high throughput screen for small molecules that induce DNA re-replication in SW480 colon adenocarcinoma cells. Further: nearly all actives have a fitted effect of over 55% in size. On re-replication activation: % of control where 0% means no effect.
# Conditions: Hoechst DNA content imaging, 48 h; re-replication activation: at 46.1 µM (top of the series)
# In short: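 Hoechst fluorescence of nuclei (405 nm excitation, 500-530 nm emission) measured by plate-scanning imager after 48 hr compound exposure at 37 C; re-replication scored as increased number of nuclei with elevated intensity.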
# Potency means the concentration at half of the fitted maximal effect.
Compound,Potency,re-replication activation
O=C1/C(=C/c2ccncc2)N2CCC1CC2,"inconclusive: 29.1 µM [activator, partial curve, poor fit]",–
CCC(=O)Nc1cc(C(=O)N2CCC3(CC2)OCCO3)ccc1S(=O)(=O)c1ccc(C)cc1,–,inactive: -0.0043% [at 9.22 µM]
NC(=O)CSP(=O)(c1ccccc1)c1ccccc1,–,inactive: -2.72%
COC(=O)C1=C(c2ccc(OCc3ccccc3)cc2)C[C@@H]2CC[C@H]1N2C(=O)NCc1ccc([N+](=O)[O-])cc1,–,inactive: -3.06%
COC(=O)C1=C(c2ccc(F)cc2OCc2ccccc2)C[C@@H]2CC[C@H]1N2C(=O)NCCOc1ccccc1Cl,"inconclusive: 18.4 µM [activator, single point]",–
c1cc2n(c1)-c1c(ccc3c1OCO3)CNC2c1ccc2c(c1)OCO2 (configuration not stated),–,inactive: 4.14%
CCCOC(=O)COc1cc(C)cc2oc(=O)c3c(c12)CCC3,"inconclusive: 29.1 µM [activator, single point]",–
Cc1cccc(NP(=O)(Oc2ccccc2F)Oc2ccccc2F)c1,"inconclusive: 16.4 µM [activator, single point]",–
CCCCn1c(N)c(C(=O)OCCOC)c2nc3ccccc3nc21,"inconclusive: 0.731 µM [activator, full curve, poor fit]",–
O=C(Oc1ccc(N2C(=O)C3C4CCC(C4)C3C2=O)cc1)c1ccco1 (configuration not stated),"inconclusive: 29.1 µM [activator, single point]",–
CC(C)N(C(=O)CCl)c1ccccc1,"inconclusive: 0.58 µM [activator, single point]",–
O=C(CSc1nnc(NC(=O)c2cc(Br)ccc2Cl)s1)NCC1CCCO1 (configuration not stated),"inconclusive: 29.1 µM [activator, single point]",–
COc1ccc(CN(C)S(=O)(=O)c2nnc(NC(=O)c3ccccc3Br)s2)cc1,"inconclusive: 12.6 µM [activator, single point]",–
CCOC(=O)C(O)(c1ccc(N(C)C(=O)COc2ccccc2)cc1)C(F)(F)F (configuration not stated),–,inactive: 0.224%
CC(=O)NC1C(OC(=O)Cc2ccccc2)OC(COC(C)=O)C(OC(C)=O)C1OC(C)=O (configuration not stated),"inconclusive: 5.8 µM [activator, partial curve, poor fit]",–
COc1ccc(CNc2oc(-c3cccc4ccccc34)nc2P(=O)(OC)OC)cc1,active: 18.4 µM,–
CC(N)Cc1cn(Cc2ccccc2)c2ccccc12 (configuration not stated),"inconclusive: 29.1 µM [activator, single point]",–
COC(=O)C1=C(c2cc3ccccc3s2)C[C@@H]2CC[C@H]1N2C(=O)N1CCCCC1,"inconclusive: 25.9 µM [activator, single point]",–
CC(C)(O)/C=C/C(=O)C(C)(O)C1C(O)CC2(C)C3CC=C4C(C=C(O)C(=O)C4(C)C)C3(C)C(=O)CC12C (configuration not stated),"inconclusive: 0.146 µM [activator, full curve, poor fit]",–
CCCCCCC(=O)N/N=C/c1c(O)n(C(C)CC)c(=S)[nH]c1=O (configuration not stated),"inconclusive: 29.1 µM [activator, single point]",–
O=C(O)c1cccc2c1NC(c1cccc([N+](=O)[O-])c1)C1CC(Sc3ccccc3[N+](=O)[O-])C(Cl)C21 (configuration not stated),–,inactive: -12.1%
O=c1[nH]c(=S)n(Cc2ccc(F)cc2)c(O)c1/C=N/N1CCCCCC1,–,inactive: -7.2%
CCc1ccc2c(CN3CC=C(c4ccccc4)CC3)cc(=O)oc2c1,"inconclusive: 0.291 µM [activator, partial curve, poor fit]",–

Compound,Potency,re-replication activation
Brc1ccc2[nH]cc(/C=N/N3CCCCC3)c2c1,"inconclusive: 0.461 µM [activator, full curve, poor fit]",–
O=C(Nc1ccc(Cl)cc1)N1CC1,–,inactive: -6.5%
CC1(C)C(C(=O)N2CCN(c3ccc(Cl)cc3)CC2)C1(C)C,–,inactive: 7.57%
C=C1C(C)C2C(Cc3ccccc3)NC(=O)C23C(OC(C)=O)C=CC(C)(O)CC(C)CC=CC3C1O (configuration not stated),active: 3.66 µM,–
O=C(Cn1ncc2c3ccccc3n(Cc3ccc(F)cc3)c2c1=O)N1CCC2(CC1)OCCO2,–,inactive: 3.87%
O=C(c1cccc(C(F)(F)F)c1)C1CCCN(Cc2ncc[nH]2)C1 (configuration not stated),–,inactive: 17.1%
[O]=[Cr](=[O])([OH])[O][Cr](=[O])(=[O])[OH],"inconclusive: 29.9 µM [activator, single point]",–
Cc1ccc(C2CC3CCC(C2)N3Cc2ccccc2F)cc1 (configuration not stated),"inconclusive: 29.1 µM [activator, partial curve, poor fit]",–
O=C(CCN1CC1)OCCOC(=O)CCN1CC1,"inconclusive: 29.1 µM [activator, single point]",–
Cc1ccc2c(c1)[C@@H]1CN(C)CC[C@@H]1N2C(=O)Nc1cccc(C(F)(F)F)c1,"inconclusive: 20 µM [activator, partial curve, poor fit]",–
Cc1cccc(CN2CCCC(C(=O)c3ccc(C(F)(F)F)cc3)C2)n1 (configuration not stated),–,inactive: 0.948%
Clc1ccc(CNC2CN3CCC2CC3)cc1 (configuration not stated),–,inactive: -3.18%
COc1ccc(CC(C)NCCC(c2ccccc2)c2ccccc2)cc1 (configuration not stated),"inconclusive: 29.1 µM [activator, single point]",–
CCN1C(=O)C(=C2C=C(C)N(Cc3ccco3)C(C)=C2)C(=O)N(CC)C1=S,"inconclusive: 29.1 µM [activator, single point]",–
Cc1cc(OCC(=O)NCC(O)c2ccccc2)c2c3c(c(=O)oc2c1)CCC3 (configuration not stated),"inconclusive: 29.1 µM [activator, single point]",–
CC(C)=CC1C(C(=O)OCN2C(=O)C3=C(CCCC3)C2=O)C1(C)C (configuration not stated),–,inactive: -1.53%
COc1ccc(/C=C2\Oc3cc(OC(=O)N4CCOCC4)ccc3C2=O)c(OC)c1,"inconclusive: 20.6 µM [activator, single point]",–
CN1CCCCC1c1ccc(-c2cccnc2)nc1 (configuration not stated),–,inactive: -1.58%
Cc1ccc(Cl)c(O)c1,–,inactive: 4.52%
CCCC/C(C)=C/[C@@H](NP(=O)(c1ccccc1)c1ccccc1)c1ccccc1,"inconclusive: 25.9 µM [activator, single point]",–
CCCCCc1cc(O)c2c(c1)OC(C)(C)C1CC=C(C)CC21 (configuration not stated),"inconclusive: 26.6 µM [activator, partial curve, poor fit]",–
CCOc1ccc(NC(=O)C2CCCN2C(=O)Oc2ccccc2)cc1 (configuration not stated),"inconclusive: 18.4 µM [activator, single point]",–
Cn1c(O)c(C(=O)c2ccccc2)c(=O)n(C)c1=O,–,inactive: -0.87%

# Some of the entries so far, with bars between the fields:
Compound | Potency | re-replication activation
Brc1ccc2[nH]cc(/C=N/N3CCCCC3)c2c1 | inconclusive: 0.461 µM [activator, full curve, poor fit] | –
CC1(C)C(C(=O)N2CCN(c3ccc(Cl)cc3)CC2)C1(C)C | – | inactive: 7.57%
C=C1C(C)C2C(Cc3ccccc3)NC(=O)C23C(OC(C)=O)C=CC(C)(O)CC(C)CC=CC3C1O (configuration not stated) | active: 3.66 µM | –
O=C(Cn1ncc2c3ccccc3n(Cc3ccc(F)cc3)c2c1=O)N1CCC2(CC1)OCCO2 | – | inactive: 3.87%
O=C(c1cccc(C(F)(F)F)c1)C1CCCN(Cc2ncc[nH]2)C1 (configuration not stated) | – | inactive: 17.1%
[O]=[Cr](=[O])([OH])[O][Cr](=[O])(=[O])[OH] | inconclusive: 29.9 µM [activator, single point] | –
Cc1ccc(C2CC3CCC(C2)N3Cc2ccccc2F)cc1 (configuration not stated) | inconclusive: 29.1 µM [activator, partial curve, poor fit] | –
O=C(CCN1CC1)OCCOC(=O)CCN1CC1 | inconclusive: 29.1 µM [activator, single point] | –
Cc1ccc2c(c1)[C@@H]1CN(C)CC[C@@H]1N2C(=O)Nc1cccc(C(F)(F)F)c1 | inconclusive: 20 µM [activator, partial curve, poor fit] | –
Cc1cccc(CN2CCCC(C(=O)c3ccc(C(F)(F)F)cc3)C2)n1 (configuration not stated) | – | inactive: 0.948%
Clc1ccc(CNC2CN3CCC2CC3)cc1 (configuration not stated) | – | inactive: -3.18%
COc1ccc(CC(C)NCCC(c2ccccc2)c2ccccc2)cc1 (configuration not stated) | inconclusive: 29.1 µM [activator, single point] | –
Cc1cc(OCC(=O)NCC(O)c2ccccc2)c2c3c(c(=O)oc2c1)CCC3 (configuration not stated) | inconclusive: 29.1 µM [activator, single point] | –
CC(C)=CC1C(C(=O)OCN2C(=O)C3=C(CCCC3)C2=O)C1(C)C (configuration not stated) | – | inactive: -1.53%
COc1ccc(/C=C2\Oc3cc(OC(=O)N4CCOCC4)ccc3C2=O)c(OC)c1 | inconclusive: 20.6 µM [activator, single point] | –
Cc1ccc(Cl)c(O)c1 | – | inactive: 4.52%
CCCC/C(C)=C/[C@@H](NP(=O)(c1ccccc1)c1ccccc1)c1ccccc1 | inconclusive: 25.9 µM [activator, single point] | –
CCCCCc1cc(O)c2c(c1)OC(C)(C)C1CC=C(C)CC21 (configuration not stated) | inconclusive: 26.6 µM [activator, partial curve, poor fit] | –
CCOc1ccc(NC(=O)C2CCCN2C(=O)Oc2ccccc2)cc1 (configuration not stated) | inconclusive: 18.4 µM [activator, single point] | –
Cn1c(O)c(C(=O)c2ccccc2)c(=O)n(C)c1=O | – | inactive: -0.87%

# (further entries)

Compound,Potency,re-replication activation
N#CC1c2ccccc2-n2nncc2CN1Cc1cc(Cl)cc(Cl)c1 (configuration not stated),"inconclusive: 3.66 µM [activator, single point]",–
C=C1C(=O)O[C@@H]2C[C@@H](C)[C@@H]3C=CC(=O)[C@@]3(C)[C@@H](O)[C@H]12,"inconclusive: 0.146 µM [activator, full curve, poor fit]",–
CC(=O)c1c(C)n(CC2CCCO2)c2ccc(O)cc12 (configuration not stated),"inconclusive: 29.1 µM [activator, partial curve, poor fit]",–
CCC/C=C/C=C/C(=O)OC1/C(=C/C(=O)OC)CC2CC(C(C)O)OC(=O)CC(O)CC3CC(OC(C)=O)C(C)(C)C(O)(CC4C/C(=C/C(=O)OC)CC(/C=C\C(C)(C)C1(O)O2)O4)O3 (configuration not stated),"inconclusive: 10.6 µM [activator, full curve]",–
CN1C(=O)NC(=O)/C(=C/c2ccc([N+](=O)[O-])s2)C1=O,"inconclusive: 29.1 µM [activator, single point]",–
COc1cc([C@@H]2c3cc4c(cc3[C@@H](OC)[C@H]3COC(=O)[C@H]23)OCO4)cc(OC)c1O,active: 5.17 µM,–
O=c1[nH]c(=O)n(-c2ccc(F)cc2)c(O)c1C=Nc1ccccc1N1CCCC1,"inconclusive: 29.1 µM [activator, partial curve, poor fit]",–
O=C(c1ccc(C(F)(F)F)cc1)C1CCCN(C2CCSCC2)C1 (configuration not stated),active: 5.17 µM,–
CN(C)[C@@H]1C(=O)C(C(N)=O)=C(O)[C@@]2(O)C(=O)C3=C(O)c4c(O)ccc(Cl)c4[C@@](C)(O)C3C[C@@H]12 (some centres not stated),"inconclusive: 18.4 µM [activator, single point]",–
CCCNC(=O)N1[C@H]2CC[C@@H]1C(C(=O)OC)=C(c1ccccc1)C2,–,inactive: -8.77%
CCc1ccc2c(c1)Sc1ccccc1CC2N1CCN(C)CC1 (configuration not stated),active: 25.9 µM,–
CCN1CCC(NCC2CCCCC2)CC1,"inconclusive: 11.6 µM [activator, single point]",–
CCOc1ccc(-c2cc(C)[n+](CCO)c(-c3ccc(OCC)cc3)c2)cc1,"inconclusive: 23.1 µM [activator, single point]",–
Cc1cc(Cl)ccc1OCC(=O)O,–,inactive: 1.84%
CN(C)C(=O)Oc1ccc(C(=O)c2ccccc2)cc1,–,inactive: 0.134%
CCOc1ccc2nc(N(CCN(CC)CC)C(=O)c3ccc([N+](=O)[O-])cc3)sc2c1,"inconclusive: 32.6 µM [activator, partial curve, poor fit]",–
CCCCc1ccc(C(=O)O)nc1,"inactive and inconclusive: 2.82 µM [activator, single point]",–
COC(=O)C1=C(c2ccccc2OCc2ccccc2)C[C@@H]2CC[C@H]1N2C(=O)NCCOc1ccccc1,–,inactive: 12%
CCOC(=O)c1c(NC(=O)C(c2ccccc2)c2ccccc2)sc2c1C1CCN2CC1,"inconclusive: 23.1 µM [activator, single point]",–
S=P(NCCNP(=S)(N1CC1)N1CC1)(N1CC1)N1CC1,"inconclusive: 1.64 µM [activator, full curve, poor fit]",–
COc1cc2c(c(OC)c1OC)-c1ccc(C(=O)O)cc1[C@@H](NC(C)=O)CC2,–,inactive: -0.918%
